Values from PubChem BioAssay AID602196 (INSERM, 2012).

Aim: 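Modifiers of cisplatin sensitivity in A549 cells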
System: human A549 lung cancer cells
Reagents: siRNA pair against human genes
Duration: 48 h transfection before cisplatin; time from cisplatin to read-out not stated
Challenge: cisplatin at a dose killing half of control-siRNA cells; exact dose and duration not given
Measured: 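Shift in cisplatin death relative to control siRNA, from -50 (all cells die) to +50 (no cells die); siRNAs harmful on their own scored 0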
Scale: two-siRNA summed score (-2 to +2): higher = both siRNAs protect from cisplatin killing; -2 means both sensitise; mean protection from cisplatin (shift in death): higher = protection from cisplatin killing
Call rule: 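siRNAs harmful alone (LDH or WST-1) get 0; others get +1 for less and -1 for more cisplatin killing; genes are active when the two siRNAs give the same sign, summing to ±2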
Calls: active = both siRNAs shift cisplatin killing the same way; inactive = no consistent shift, or siRNA harmful alone
This is one part, drawn at random, of about 23,000 reagents. 455 of them (2%) were called active. 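Active includes both protection and sensitisation; some change values fall well beyond the stated -50 to +50 range.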 A number with no mark means an inactive call. Not all columns of the deposit are shown. Not given: the amount of reagent.

What did the screen give for CSRNP2?
two-siRNA summed score (-2 to +2): 0; mean protection from cisplatin (shift in death) (%): 6.8

For LOC440462, what was measured?
two-siRNA summed score (-2 to +2): 1; mean protection from cisplatin (shift in death) (%): 14.7

With VNN3P, what was measured?
two-siRNA summed score (-2 to +2): 0; mean protection from cisplatin (shift in death) (%): 9

What did the screen give for TBC1D22B?
two-siRNA summed score (-2 to +2): 0; mean protection from cisplatin (shift in death) (%): 8

What did the screen give for LOC390221?
two-siRNA summed score (-2 to +2): -1; mean protection from cisplatin (shift in death) (%): -3.4

What is on record for SLC39A6?
two-siRNA summed score (-2 to +2): 0; mean protection from cisplatin (shift in death) (%): -6

For ERMP1, how do the results read?
two-siRNA summed score (-2 to +2): 0; mean protection from cisplatin (shift in death) (%): -11.4

With NALF2, what does the deposit list?
two-siRNA summed score (-2 to +2): 0; mean protection from cisplatin (shift in death) (%): 2

For IFNL1, what does the deposit list?
two-siRNA summed score (-2 to +2): 0; mean protection from cisplatin (shift in death) (%): 3.3

How did the screen score ATP9A?
two-siRNA summed score (-2 to +2): 0; mean protection from cisplatin (shift in death) (%): 0.8

Which result is listed for HNRNPF?
two-siRNA summed score (-2 to +2): 0; mean protection from cisplatin (shift in death) (%): -6.6

What did the screen give for SRF?
two-siRNA summed score (-2 to +2): 0; mean protection from cisplatin (shift in death) (%): -11.1

For FCGRT, how do the results read?
two-siRNA summed score (-2 to +2): 0; mean protection from cisplatin (shift in death) (%): 1.9

With SERINC3, what was measured?
two-siRNA summed score (-2 to +2): 1; mean protection from cisplatin (shift in death) (%): 10.7

For LOC441707, how do the results read?
two-siRNA summed score (-2 to +2): 1; mean protection from cisplatin (shift in death) (%): 13.3

With LOC401466, how do the results read?
two-siRNA summed score (-2 to +2): 1; mean protection from cisplatin (shift in death) (%): 11.4

What did the screen give for LOC342918?
two-siRNA summed score (-2 to +2): 0; mean protection from cisplatin (shift in death) (%): 10.7

With SUCNR1, what was measured?
two-siRNA summed score (-2 to +2): 0; mean protection from cisplatin (shift in death) (%): 1

How did the screen score ADGRG2?
two-siRNA summed score (-2 to +2): 0; mean protection from cisplatin (shift in death) (%): 5.4

Which result is listed for PAQR6?
two-siRNA summed score (-2 to +2): -1; mean protection from cisplatin (shift in death) (%): -12.6

Which result is listed for DCSTAMP?
two-siRNA summed score (-2 to +2): 0; mean protection from cisplatin (shift in death) (%): 10.2

Targets above whose target name starts with L or l:
LOC440462 | two-siRNA summed score (-2 to +2) = 1; mean protection from cisplatin (shift in death) (%) = 14.7
LOC390221 | two-siRNA summed score (-2 to +2) = -1; mean protection from cisplatin (shift in death) (%) = -3.4
LOC441707 | two-siRNA summed score (-2 to +2) = 1; mean protection from cisplatin (shift in death) (%) = 13.3
LOC401466 | two-siRNA summed score (-2 to +2) = 1; mean protection from cisplatin (shift in death) (%) = 11.4
LOC342918 | two-siRNA summed score (-2 to +2) = 0; mean protection from cisplatin (shift in death) (%) = 10.7
